Results published in PMC7819943, “Rice protein-binding microarrays: a tool to detect cis-acting elements near promoter regions in rice”.
Some of the results follow.

By UniProt entry, the sequences of proteins in these tests, tags left out.
UniProt Q0JBA9, entry or part of it: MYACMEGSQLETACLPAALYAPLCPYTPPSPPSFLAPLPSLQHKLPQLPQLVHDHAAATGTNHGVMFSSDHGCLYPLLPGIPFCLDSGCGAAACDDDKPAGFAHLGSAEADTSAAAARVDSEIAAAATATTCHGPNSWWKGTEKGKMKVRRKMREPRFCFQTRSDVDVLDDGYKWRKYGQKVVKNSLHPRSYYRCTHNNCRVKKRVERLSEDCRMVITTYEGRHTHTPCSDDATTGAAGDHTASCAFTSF

Target: OsWRKY34 (Oryza sativa, UniProt Q0JBA9 1-250)
Assay: protein-binding microarray (RPBM); PBS, 2% BSA, 51.3 ng/ul salmon testes DNA, 50 uM zinc acetate, 200 nM TF, 25 C, 1 h; high values mean tight binding
Conditions: protein: recombinant; tags: N-terminal polyhistidine and DsRed monomer fusion (pET32a); label: CyDye5-dUTP incorporated in the synthesized complementary strand; 3' TTTTT single-stranded linker to array surface; dsDNA, one strand shown
How it was run: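 Using Ni–NTA, transcription factors fused N-terminally to polyhistidine and DsRed were purified after expression in E. coli BL21-CodonPlus. These were incubated at 200 nM with a blocked, double-stranded custom Agilent array for 1 h at 25 °C in a buffer containing 50 µM zinc acetate, and the array was washed. The binding signal is per-feature fluorescence intensity (arbitrary units) on an Axon 4000B scanner.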

Sequence | binding signal
CATTGATCTGAATACATACTGCTTTCTATGACCTTATCATCGGAGTCACCTAGTGCAG | 8960 fluorescence intensity (a.u.)
CACTAGTTGTTTTGAGTTTTTGTTTGATCCTTCTTCATTTCGGAGTCACCTAGTGCAG | 8470 fluorescence intensity (a.u.)
ATTTCACCCTTATTTTGCTGCGCGTATACGTTTGAATTCTCGGAGTCACCTAGTGCAG | 11500 fluorescence intensity (a.u.)
TGCCCCAACAGTAGTGTCCTTTGCCTTGTATTCTCCTCTCCGGAGTCACCTAGTGCAG | 8500 fluorescence intensity (a.u.)
GAGAGAGGATTTTTAGGGTTTAGTTGTCTGCACGAATCTTCGGAGTCACCTAGTGCAG | 8690 fluorescence intensity (a.u.)
ATTCACACCCACACCAAGCACCAACCAAACCTTGCCCTATCGGAGTCACCTAGTGCAG | 8290 fluorescence intensity (a.u.)
GCTGTTTCTCCCTGCCTTGGATGCTTTTATCTATTGATGTCGGAGTCACCTAGTGCAG | 12200 fluorescence intensity (a.u.)
AGTATAATGGTGGGTGGTATTTCATTTGGATCTTTGAACCCGGAGTCACCTAGTGCAG | 8850 fluorescence intensity (a.u.)
TCGTCGCCTCCGCCTCCGCCCACAAACCACATTTTTTCTTCGGAGTCACCTAGTGCAG | 15300 fluorescence intensity (a.u.)
GATTTCAGAAGGCGATTTTTGGTTCTTTAGTTCAGAGTTCCGGAGTCACCTAGTGCAG | 8550 fluorescence intensity (a.u.)
GCCCAAGTCCCCAGAGCCATCGTCCTATCCAAATTTTACACGGAGTCACCTAGTGCAG | 8140 fluorescence intensity (a.u.)
GCGCTCCATCCATGGCTTTCCCGTCTCCGCCCATAAATACCGGAGTCACCTAGTGCAG | 10400 fluorescence intensity (a.u.)
ACTTTTTATTTAGGTTTTGTGGCGTGCTGGTAGCTCCTTCCGGAGTCACCTAGTGCAG | 8680 fluorescence intensity (a.u.)
CCTTGTCCAATGCTTTAGTCGTTGTTTTCTACATTACTCACGGAGTCACCTAGTGCAG | 11200 fluorescence intensity (a.u.)
ATATACTCCCACCATTTCATAATATAAGGCACAACTTTTTCGGAGTCACCTAGTGCAG | 9510 fluorescence intensity (a.u.)
TTCCTTTGAAGGCTAGCATATGTGTGGTGTTTGCAGTCCACGGAGTCACCTAGTGCAG | 9530 fluorescence intensity (a.u.)
TTGCTTCACGTCTCCTCTTCATGTGATCTGAGGCGCTCGCCGGAGTCACCTAGTGCAG | 8480 fluorescence intensity (a.u.)
AGTGGGGCCTACCTGTCAGTGACTCCACCCCTATATTCTCCGGAGTCACCTAGTGCAG | 9950 fluorescence intensity (a.u.)
CTTCTTCTTTTTATTTGGCTCCGCTTATAAATTTTATTGTCGGAGTCACCTAGTGCAG | 8670 fluorescence intensity (a.u.)
CCCACGTGGGCCCCACCATTTTTATTAATATGTGTGTGAACGGAGTCACCTAGTGCAG | 8340 fluorescence intensity (a.u.)
GTCCACACCATCTAGCAGTATATGTCCTACGTCAGGATCACGGAGTCACCTAGTGCAG | 9070 fluorescence intensity (a.u.)

Exported with tabs: part of the list above
Sequence	binding signal
GATTTCAGAAGGCGATTTTTGGTTCTTTAGTTCAGAGTTCCGGAGTCACCTAGTGCAG	8550 fluorescence intensity (a.u.)
GCCCAAGTCCCCAGAGCCATCGTCCTATCCAAATTTTACACGGAGTCACCTAGTGCAG	8140 fluorescence intensity (a.u.)

(next part)

Sequence | binding signal
CACATTTATACATCTCTCATATACGAGCTTACGAAAAACGCGGAGTCACCTAGTGCAG | 8070 fluorescence intensity (a.u.)
TTTCCGTCTCTTTTACCTAAGTCTCGCGTATATCCTAGTACGGAGTCACCTAGTGCAG | 8120 fluorescence intensity (a.u.)
AGCCGTCTCATTTCCGTTTCGACATCCTTCTGAATTTCAACGGAGTCACCTAGTGCAG | 9220 fluorescence intensity (a.u.)
GTAACTGCTTCCTCGTCGTCCCAAATCAAACTTTGCCATGCGGAGTCACCTAGTGCAG | 9230 fluorescence intensity (a.u.)
CTTGAGTATTATATTGTTCGTGTTCCATATTATTTTCTCCCGGAGTCACCTAGTGCAG | 11100 fluorescence intensity (a.u.)
TGTTCAAAGTCAAACTACTCTAAGTTTGACTAAGTTTATACGGAGTCACCTAGTGCAG | 13000 fluorescence intensity (a.u.)
GGGAAGAAGAATCCGGATTCTGTTGCGGTGGTTGTTGGAACGGAGTCACCTAGTGCAG | 9380 fluorescence intensity (a.u.)
ACAATCCCTACTCCCACCCGCGCATCTTCGTAATATTCGCCGGAGTCACCTAGTGCAG | 9390 fluorescence intensity (a.u.)
CCCGCCCGCACGCACGCATCCACCCACCCACGACCAGCGCCGGAGTCACCTAGTGCAG | 8180 fluorescence intensity (a.u.)
CTGTTCCAACTTTAATCTCTCCAGCCGATTCCTTCCATCACGGAGTCACCTAGTGCAG | 8680 fluorescence intensity (a.u.)
AGCGCCACAATTTCCAATTCCCTGCAGATCCCTTCATCTCCGGAGTCACCTAGTGCAG | 9910 fluorescence intensity (a.u.)
ATGCTACCTGAATCCCTCTGTCTCTGCCGCTGTAGCGCCGCGGAGTCACCTAGTGCAG | 10900 fluorescence intensity (a.u.)
GGACCAAGTCTACATGTCATGTCATCGGAAATCACTCCCGCGGAGTCACCTAGTGCAG | 8340 fluorescence intensity (a.u.)
CTCTGAATGGCCTTGTCACCCTTTTTATTCATTCATGCTCCGGAGTCACCTAGTGCAG | 9200 fluorescence intensity (a.u.)
GATATGTCTCATGGACACATACTAATCGCACTATACTGTACGGAGTCACCTAGTGCAG | 9100 fluorescence intensity (a.u.)
GTGTCTGTCACCTGCAGGATTTGTAGTTGAATGTAGCATGCGGAGTCACCTAGTGCAG | 8140 fluorescence intensity (a.u.)
TCAGTTTGTTTGTCATCCCTATATCACAATGATTTTCGGCCGGAGTCACCTAGTGCAG | 8480 fluorescence intensity (a.u.)
TTTATTCGTACTGCGTCGCCATCCTTGGATAGTGGTTAGTCGGAGTCACCTAGTGCAG | 8450 fluorescence intensity (a.u.)
CTCGCGTCGCCTCGGGAGCCACCGTCGCCGGCCGCGCGCGCGGAGTCACCTAGTGCAG | 9160 fluorescence intensity (a.u.)
GCTGGTACCCTTATGGTTGATCTGTAGTAGTCATCATCACCGGAGTCACCTAGTGCAG | 11900 fluorescence intensity (a.u.)
TCTCCAGTCCTTGTTCGCCACGACACGTCTTACTTGACTGCGGAGTCACCTAGTGCAG | 11300 fluorescence intensity (a.u.)
